Measured values: paper PMC6991698
At least one result comes from cells or an extract, where the contact may be indirect. For some of these results: Negatives hold for the conditions tested. For some of these results: At least one verdict was read from the data and is not stated in words by the source. For some of these results: Where a protein sequence is shown, tags need not be part of it. For some of these results: For at least one entry, the source does not settle the construct or the ends of the probe.

Tests used:
Experiment in all cases: EMSA
[1] = biological target: T1, nucleolin Nuc1-309 del310-713 (UniProt P13383); conditions: band not significantly enhanced over endogenous background; RNA-EMSA, 1x buffer (from 10x): 50 mM KCl, 5% glycerol, 0.1% NP-40, 1 mM MgCl2, 1 mM DTT, 10 mM Tris-HCl pH 8.0, 0.5 mg/mL heparin, 0.5 mg/mL yeast tRNA; protein in a lysate after overexpression; residues 1-309; label: biotin
T1 sequence (looked up): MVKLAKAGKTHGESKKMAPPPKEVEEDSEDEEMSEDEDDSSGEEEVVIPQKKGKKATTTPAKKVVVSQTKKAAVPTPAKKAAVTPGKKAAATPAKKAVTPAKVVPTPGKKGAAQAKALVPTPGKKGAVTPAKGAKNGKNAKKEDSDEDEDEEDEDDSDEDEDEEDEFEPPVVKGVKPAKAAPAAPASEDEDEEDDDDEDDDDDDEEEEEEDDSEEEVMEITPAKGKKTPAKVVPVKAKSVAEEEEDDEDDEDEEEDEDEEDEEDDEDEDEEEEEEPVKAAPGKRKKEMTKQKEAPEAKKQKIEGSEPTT

[2] = biological target: nucleolin (pcDNA3.1-Nuc) (UniProt P13383); conditions: RNA-EMSA, 1x buffer (from 10x): 50 mM KCl, 5% glycerol, 0.1% NP-40, 1 mM MgCl2, 1 mM DTT, 10 mM Tris-HCl pH 8.0, 0.5 mg/mL heparin, 0.5 mg/mL yeast tRNA, protein in a lysate after overexpression, residues 1-713, label: biotin
[3] = biological target: nucleolin (endogenous) (UniProt P13383); conditions: RNA-EMSA, 1x buffer (from 10x): 50 mM KCl, 5% glycerol, 0.1% NP-40, 1 mM MgCl2, 1 mM DTT, 10 mM Tris-HCl pH 8.0, 0.5 mg/mL heparin, 0.5 mg/mL yeast tRNA, protein in an extract, label: biotin
[4] = Ang II-treated cells, nuclear extract, stronger than untreated and than control plasmid
[5] = band significantly enhanced over normal extract
[6] = Ang II-treated cells, control plasmid, nuclear extract, stronger than untreated
[7] = normal VSMC cytoplasmic extract, anti-nucleolin supershift, 100-fold unlabelled probe abolishes band

Sequence | binding result [1] | binding result [2, 4] | binding result [2, 5] | binding result [3, 6] | binding result [3, 7]
GGGGCCGGGGGCGGCGGCGCCCGGGGGCCAUGCGGGUGAGCC / GGCUCACCCGCAUGGCCCCCGGGCGCCGCCGCCCCCGGCCCC [EGF 5' UTR probe (42 bp)] | no binding | binds | binds | binds | binds
UUUAGCCCCAUCCCUCAUUCCCGGUGGGGUUUGGAACUUUCC / GGAAAGUUCCAAACCCCACCGGGAAUGAGGGAUGGGGCUAAA [PDGF-BB 5' UTR probe (42 bp)] | no binding | binds | binds | binds | binds
